Measurements as given in publication PMC6294503.
No constants are given. Whether binding was seen depends on the method and setting. In cells and extracts the contact can be indirect. Here binding means that the protein was enriched with, or labelled near, the bait; the list need not be complete. Sequences can lack the tags named with a protein.

T1: Bdp1-Myc (Myc-tagged Bdp1, subunit of TFIIIB) (S. cerevisiae) (UniProt P46678)
T1 sequence: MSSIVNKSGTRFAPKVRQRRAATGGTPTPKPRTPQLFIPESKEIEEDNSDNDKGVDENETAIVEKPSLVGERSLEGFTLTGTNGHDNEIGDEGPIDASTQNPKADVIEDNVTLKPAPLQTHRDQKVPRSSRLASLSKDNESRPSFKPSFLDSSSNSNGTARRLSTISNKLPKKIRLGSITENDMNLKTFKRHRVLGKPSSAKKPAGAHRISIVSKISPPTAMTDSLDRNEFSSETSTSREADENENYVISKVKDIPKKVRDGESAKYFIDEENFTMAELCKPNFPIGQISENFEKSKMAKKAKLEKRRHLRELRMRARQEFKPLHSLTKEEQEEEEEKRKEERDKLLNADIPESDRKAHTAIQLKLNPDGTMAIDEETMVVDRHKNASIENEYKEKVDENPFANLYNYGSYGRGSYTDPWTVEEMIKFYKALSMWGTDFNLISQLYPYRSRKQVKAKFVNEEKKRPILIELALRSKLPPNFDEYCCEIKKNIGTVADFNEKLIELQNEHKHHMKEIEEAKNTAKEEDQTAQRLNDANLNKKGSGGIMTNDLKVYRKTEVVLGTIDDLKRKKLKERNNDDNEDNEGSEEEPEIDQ

B1: Brf1 (subunit of TFIIIB) (protein, UniProt P29056 1-596)
chain: MPVCKNCHGTEFERDLSNANNDLVCKACGVVSEDNPIVSEVTFGETSAGAAVVQGSFIGAGQSHAAFGGSSALESREATLNNARRKLRAVSYALHIPEYITDAAFQWYKLALANNFVQGRRSQNVIASCLYVACRKEKTHHMLIDFSSRLQVSVYSIGATFLKMVKKLHITELPLADPSLFIQHFAEKLDLADKKIKVVKDAVKLAQRMSKDWMFEGRRPAGIAGACILLACRMNNLRRTHTEIVAVSHVAEETLQQRLNEFKNTKAAKLSVQKFRENDVEDGEARPPSFVKNRKKERKIKDSLDKEEMFQTSEEALNKNPILTQVLGEQELSSKEVLFYLKQFSERRARVVERIKATNGIDGENIYHEGSENETRKRKLSEVSIQNEHVEGEDKETEGTEEKVKKVKTKTSEEKKENESGHFQDAIDGYSLETDPYCPRNLHLLPTTDTYLSKVSDDPDNLEDVDDEELNAHLLNEEASKLKERIWIGLNADFLLEQESKRLKQEADIATGNTSVKKKRTRRRNNTRSDEPTKTVDAAAAIGLMSDLQDKSGLHAALKAAEESGDFTTADSVKNMLQKASFSKKINYDAIDGLFR
B2: TBP (subunit of TFIIIB) (protein, UniProt P13393 1-240)
chain: MADEERLKEFKEANKIVFDPNTRQVWENQNRDGTKPATTFQSEEDIKRAAPESEKDTSATSGIVPTLQNIVATVTLGCRLDLKTVALHARNAEYNPKRFAAVIMRIREPKTTALIFASGKMVVTGAKSEDDSKLASRKYARIIQKIGFAAKFTDFKIQNIVGSCDVKFPIRLEGLAFSHGTFSSYEPELFPGLIYRMVKPKIVLLIFVSGKIVLTGAKQREEIYQAFEAIYPVLSEFRKM
B3: Tfc4 (subunit of the τA subcomplex of TFIIIC), as found by mass spectrometry (protein, UniProt P33339 1-1025)
chain: MAAGKLKKEQQNQSAERESADTGKVNDEDEEHLYGNIDDYKHLIQDEEYDDEDVPHDLQLSEDEYNSERDSSLLAEFSDYGEISEDDEEDFMNAIREASNFKVKKKKKNDKGKSYGRQRKERVLDPEVAQLLSQANEAFVRNDLQVAERLFNEVIKKDARNFAAYETLGDIYQLQGRLNDCCNSWFLAAHLNASDWEFWKIVAILSADLDHVRQAIYCFSRVISLNPMEWESIYRRSMLYKKTGQLARALDGFQRLYMYNPYDANILRELAILYVDYDRIEDSIELYMKVFNANVERREAILAALENALDSSDEESAAEGEDADEKEPLEQDEDRQMFPDINWKKIDAKYKCIPFDWSSLNILAELFLKLAVSEVDGIKTIKKCARWIQRRESQTFWDHVPDDSEFDNRRFKNSTFDSLLAAEKEKSYNIPIDIRVRLGLLRLNTDNLVEALNHFQCLYDETFSDVADLYFEAATALTRAEKYKEAIDFFTPLLSLEEWRTTDVFKPLARCYKEIESYETAKEFYELAIKSEPDDLDIRVSLAEVYYRLNDPETFKHMLVDVVEMRKHQVDETLHRISNEKSSNDTSDISSKPLLEDSKFRTFRKKKRTPYDAERERIERERRITAKVVDKYEKMKKFELNSGLNEAKQASIWINTVSELVDIFSSVKNFFMKSRSRKFVGILRRTKKFNTELDFQIERLSKLAEGDSVFEGPLMEERVTLTSATELRGLSYEQWFELFMELSLVIAKYQSVEDGLSVVETAQEVNVFFQDPERVKMMKFVKLAIVLQMDDEEELAENLRGLLNQFQFNRKVLQVFMYSLCRGPSSLNILSSTIQQKFFLRQLKAFDSCRYNTEVNGQASITNKEVYNPNKKSSPYLYYIYAVLLYSSRGFLSALQYLTRLEEDIPDDPMVNLLMGLSHIHRAMQRLTAQRHFQIFHGLRYLYRYHKIRKSLYTDLEKQEADYNLGRAFHLIGLVSIAIEYYNRVLENYDDGKLKKHAAYNSIIIYQQSGNVELADHLMEKYLSI

Target: T1, Bdp1-Myc (Myc-tagged Bdp1, subunit of TFIIIB) (S. cerevisiae)
Experiment: affinity purification with mass spectrometry; S phase cells (WT and cdk1-as1) fixed with 1% formaldehyde; Bdp1-Myc purified from lysates on magnetic anti-Myc beads overnight at 4°C; washes with high-salt TBS (350 mM NaCl) and TBS; copurifying proteins analysed by quantitative MS

binding, binds:
B1
B2
B3
